Measured data: PubChem BioAssay AID1053208 (Peter MacCallum Cancer Centre, 2014)
Assay: 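Synthetic lethal interactions between gene loss and doxorubicin in osteosarcoma cells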 (primary screen). Cell system: mouse osteosarcoma cells, early-passage culture from an engineered mouse model of fibroblastic bone tumour. Reagents: siRNA pool against mouse genes, 40 nM. Timing: about 120 h (48 h before drug, then 72 h with drug). Treatment: doxorubicin 100 nM for 72 h, roughly 30-40% inhibitory dose. Read-out: 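Viability read as ATP luminescence after 72 h of 100 nM doxorubicin or none, duplicate wells averaged, scaled to non-targeting siRNA, then expressed as robust z-scores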. Scale: viability z-score with doxorubicin: higher = more viable cells under doxorubicin; viability z-score without drug: higher = more viable cells with knock-down alone. Active means: 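a pool counts as active when its viability z-score with doxorubicin is -2 or below and its z-score without drug lies between -2 and 2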.
Here is one part, drawn at random, of about 17,000 reagents. 788 of all reagents (4.7%) were called active. 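Calls rest on z-score classes alone; an extra cut-off of viability at most 70% of control was not applied to them.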 Entries without a mark were called inactive. The numbers tell different reagents against one gene apart. Not all columns of the deposit are shown.

| gene | pool no. | combined z-score class | viability z-score with doxorubicin | viability z-score without drug |
| --- | --- | --- | --- | --- |
| Diaph3 (diaphanous related formin 3) | 1 | no change with or without drug | 0.45 | -1.01 |
| Crh (corticotropin releasing hormone) | 1 | no change with or without drug | 1.24 | -0.17 |
| Me2 (malic enzyme 2, NAD(+)-dependent, mitochondrial) | 1 | high cell count with doxorubicin only | 2.36 | 0.17 |
| Garin1b (golgi associated RAB2 interactor 1B) | 1 | no change with or without drug | -0.22 | -0.51 |
| Ghitm (growth hormone inducible transmembrane protein) | 1 | no change with or without drug | 0.22 | 1.18 |
| Vegfc (vascular endothelial growth factor C) | 1 | no change with or without drug | 0.22 | 0.84 |
| Bbx (bobby sox HMG box containing) | 1 | no change with or without drug | -0.45 | -0.51 |
| Slco3a1 | 1 | no change with or without drug | -0.22 | -1.18 |
| Polr1a (polymerase (RNA) I polypeptide A) | 1 | low cell count with doxorubicin only (active) | -3.37 | -1.18 |
| Herc4 (hect domain and RLD 4) | 1 | no change with or without drug | 1.8 | 0.34 |
| Rwdd2a (RWD domain containing 2A) | 1 | no change with or without drug | -0.22 | -0.84 |
| Tas2r114 (taste receptor, type 2, member 114) | 1 | no change with or without drug | 0.79 | 0.34 |
| Or10a4 (olfactory receptor family 10 subfamily A member 4) | 1 | no change with or without drug | -0.45 | -1.18 |
| Tmem123 (transmembrane protein 123) | 1 | no change with or without drug | -1.57 | -0.34 |
| Exoc3l (exocyst complex component 3-like) | 1 | low cell count with doxorubicin only (active) | -2.7 | -0.17 |
| Spata24 (spermatogenesis associated 24) | 1 | no change with or without drug | 1.12 | 0.84 |
| Rpn1 (ribophorin I) | 1 | no change with or without drug | -1.57 | -0.84 |
| Setdb1 (SET domain, bifurcated 1) | 1 | no change with or without drug | -1.12 | -0.84 |
| Nuf2 (NUF2, NDC80 kinetochore complex component) | 1 | low cell count with doxorubicin only (active) | -3.04 | -1.52 |
| Scara5 (scavenger receptor class A, member 5) | 1 | no change with or without drug | 1.12 | 0.51 |
| Tex11 (testis expressed gene 11) | 1 | no change with or without drug | -1.12 | -0.51 |
| Upf1 (UPF1 RNA helicase and ATPase) | 1 | no change with or without drug | -1.24 | -1.18 |
| Clvs2 (clavesin 2) | 1 | no change with or without drug | -1.01 | -1.18 |
| Zbtb48 (zinc finger and BTB domain containing 48) | 1 | no change with or without drug | -0.67 | -0.51 |
| Foxk1 (forkhead box K1) | 1 | no change with or without drug | 0.22 | -0.84 |
| COL6A3 | 1 | no change with or without drug | 0.56 | 0.34 |
| Or5t9 (olfactory receptor family 5 subfamily T member 9) | 1 | no change with or without drug | -1.01 | 0.17 |
| Kcnab3 | 1 | no change with or without drug | -0.45 | 0.84 |
| Trim50 (tripartite motif-containing 50) | 1 | no change with or without drug | 0 | -0.67 |
| Runx1t1 (RUNX1 translocation partner 1) | 1 | no change with or without drug | -0.67 | -1.52 |
| Foxc1 (forkhead box C1) | 1 | no change with or without drug | 0 | 1.85 |
| 4930447C04Rik (RIKEN cDNA 4930447C04 gene) | 1 | high cell count without drug only | 0.45 | 3.04 |
| G0s2 (G0/G1 switch gene 2) | 1 | no change with or without drug | 1.12 | 1.18 |
| 1810009A15Rik (RIKEN cDNA 1810009A15 gene) | 1 | no change with or without drug | 0 | 0.67 |
| Mtcl3 (MTCL family member 3) | 1 | no change with or without drug | -0.45 | -1.01 |
| Atp2b2 (ATPase, Ca++ transporting, plasma membrane 2) | 1 | no change with or without drug | 0.34 | -1.18 |
| Or5al6 (olfactory receptor family 5 subfamily AL member 6) | 1 | no change with or without drug | -0.45 | 0.51 |
| Nfia (nuclear factor I/A) | 1 | no change with or without drug | 1.35 | -0.17 |
| Nfia (nuclear factor I/A) | 2 | no change with or without drug | -0.45 | -1.01 |
| Acvr1b (activin A receptor, type 1B) | 1 | no change with or without drug | -1.57 | 0.17 |
| Nkx3-2 (NK3 homeobox 2) | 1 | no change with or without drug | 1.57 | 0.67 |
| P3h2 (prolyl 3-hydroxylase 2) | 1 | no change with or without drug | 1.01 | 1.69 |
| Tbx15 (T-box 15) | 1 | no change with or without drug | -1.12 | -0.17 |
| Smpd3 (sphingomyelin phosphodiesterase 3, neutral) | 1 | no change with or without drug | -0.22 | -1.35 |
| Tlr7 (toll-like receptor 7) | 1 | no change with or without drug | -0.79 | -0.17 |
| Rtl5 (retrotransposon Gag like 5) | 1 | no change with or without drug | -0.22 | 1.18 |
| Pwp1 (PWP1 homolog, endonuclein) | 1 | no change with or without drug | -1.91 | 0.34 |
| Or10h1 (olfactory receptor family 10 subfamily H member 1) | 1 | no change with or without drug | 0.67 | -0.84 |
| Ercc5 | 1 | no change with or without drug | 1.12 | 0.84 |
| Pde6b (phosphodiesterase 6B, cGMP, rod receptor, beta polypeptide) | 1 | no change with or without drug | -0.67 | -0.51 |

Entries listed so far whose gene name begins with M or m (2):
| gene | pool no. | combined z-score class | viability z-score with doxorubicin | viability z-score without drug |
| --- | --- | --- | --- | --- |
| Me2 (malic enzyme 2, NAD(+)-dependent, mitochondrial) | 1 | high cell count with doxorubicin only | 2.36 | 0.17 |
| Mtcl3 (MTCL family member 3) | 1 | no change with or without drug | -0.45 | -1.01 |
